Experimental data: PMC11904943
No constants are given. Whether binding was seen depends on the method and setting. In cells and extracts the contact can be indirect. Some results given as binding are weak or reduced against the parent protein; the word gives no strength. Where a sequence is shown, tags or fusion partners need not be part of it.

Molecular target: T1, Flag-RBM12 (human) (UniProt Q9NTZ6)
T1 sequence: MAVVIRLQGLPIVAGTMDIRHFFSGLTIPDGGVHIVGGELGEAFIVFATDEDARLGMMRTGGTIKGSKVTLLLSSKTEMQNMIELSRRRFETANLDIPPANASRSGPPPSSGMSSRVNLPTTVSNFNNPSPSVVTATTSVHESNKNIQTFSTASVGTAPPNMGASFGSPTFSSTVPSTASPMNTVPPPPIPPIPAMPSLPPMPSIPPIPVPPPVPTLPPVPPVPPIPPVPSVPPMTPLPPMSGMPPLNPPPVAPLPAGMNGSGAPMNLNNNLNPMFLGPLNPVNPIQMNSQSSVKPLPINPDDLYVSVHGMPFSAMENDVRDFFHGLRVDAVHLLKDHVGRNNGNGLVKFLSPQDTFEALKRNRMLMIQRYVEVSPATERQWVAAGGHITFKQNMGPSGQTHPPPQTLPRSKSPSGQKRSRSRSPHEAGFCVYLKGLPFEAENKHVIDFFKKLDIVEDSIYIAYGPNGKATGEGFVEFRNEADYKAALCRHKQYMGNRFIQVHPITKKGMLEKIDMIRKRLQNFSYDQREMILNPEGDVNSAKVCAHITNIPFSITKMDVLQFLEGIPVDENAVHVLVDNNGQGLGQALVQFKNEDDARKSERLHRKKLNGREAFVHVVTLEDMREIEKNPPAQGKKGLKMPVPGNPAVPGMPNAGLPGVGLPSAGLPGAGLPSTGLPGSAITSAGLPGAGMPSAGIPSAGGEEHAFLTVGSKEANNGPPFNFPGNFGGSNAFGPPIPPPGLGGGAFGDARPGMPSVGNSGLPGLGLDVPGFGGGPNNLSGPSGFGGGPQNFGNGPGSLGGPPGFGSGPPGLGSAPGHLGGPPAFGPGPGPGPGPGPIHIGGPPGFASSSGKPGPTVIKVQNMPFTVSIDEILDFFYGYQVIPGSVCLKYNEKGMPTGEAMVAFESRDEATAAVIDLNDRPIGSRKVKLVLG
Assay: co-IP; HEK293T cells transfected with HA-WAC or HA-WACΔCC and Flag-RBM12; IP with anti-Flag M2 agarose beads, western blot with anti-HA

B1: HA-tagged wild-type WAC (protein, UniProt Q9BTA9 1-647)
chain: MVMYARKQQRLSDGCHDRRGDSQPYQALKYSSKSHPSSGDHRHEKMRDAGDPSPPNKMLRRSDSPENKYSDSTGHSKAKNVHTHRVRERDGGTSYSPQENSHNHSALHSSNSHSSNPSNNPSKTSDAPYDSADDWSEHISSSGKKYYYNCRTEVSQWEKPKEWLEREQRQKEANKMAVNSFPKDRDYRREVMQATATSGFASGMEDKHSSDASSLLPQNILSQTSRHNDRDYRLPRAETHSSSTPVQHPIKPVVHPTATPSTVPSSPFTLQSDHQPKKSFDANGASTLSKLPTPTSSVPAQKTERKESTSGDKPVSHSCTTPSTSSASGLNPTSAPPTSASAVPVSPVPQSPIPPLLQDPNLLRQLLPALQATLQLNNSNVDISKINEVLTAAVTQASLQSIIHKFLTAGPSAFNITSLISQAAQLSTQAQPSNQSPMSLTSDASSPRSYVSPRISTPQTNTVPIKPLISTPPVSSQPKVSTPVVKQGPVSQSATQQPVTADKQQGHEPVSPRSLQRSSSQRSPSPGPNHTSNSSNASNATVVPQNSSARSTCSLTPALAAHFSENLIKHVQGWPADHAEKQASRLREEAHNMGTIHMSEICTELKNLRSLVRVCEIQATLREQRILFLRQQIKELEKLKNQNSFMV
binding: binds
